Laboratory results from publication PMC4338625.
Construct, isoform or probe ends are uncertain for at least one entry. For part of these data: A weaker result is weaker than the reference pair of the same experiment. Protein sequences can lack the tags named with them. For part of these data: At least one verdict was read from the data and is not stated in words by the source.

Key:
Experiment in all cases: EMSA
[1] = molecular target: T1, SPDEF (human) (UniProt O95238); conditions: EMSA conditions not printed (as previously described, ref 5); protein stock in 10 mM Tris pH 7.9, 0.5 mM EDTA, 200 mM KCl, 1 mM DTT, 10% glycerol; recombinant protein; residues 1-335; protein details: N-term 6xHis
T1 sequence (looked up): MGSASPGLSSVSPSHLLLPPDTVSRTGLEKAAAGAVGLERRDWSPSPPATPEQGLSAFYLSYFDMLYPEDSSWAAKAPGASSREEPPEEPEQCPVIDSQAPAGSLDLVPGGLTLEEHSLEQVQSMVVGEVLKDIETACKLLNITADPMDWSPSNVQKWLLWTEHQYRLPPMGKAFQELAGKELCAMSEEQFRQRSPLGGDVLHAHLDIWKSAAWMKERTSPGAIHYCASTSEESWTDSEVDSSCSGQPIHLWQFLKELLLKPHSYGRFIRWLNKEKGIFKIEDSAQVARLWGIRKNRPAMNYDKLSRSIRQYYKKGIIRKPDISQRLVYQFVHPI

[2] = molecular target: T2, FEV (human) (UniProt Q99581); conditions: EMSA conditions not printed (as previously described, ref 5); protein stock in 10 mM Tris pH 7.9, 0.5 mM EDTA, 200 mM KCl, 1 mM DTT, 10% glycerol; recombinant protein; residues 1-238; protein details: N-term 6xHis
T2 sequence (looked up): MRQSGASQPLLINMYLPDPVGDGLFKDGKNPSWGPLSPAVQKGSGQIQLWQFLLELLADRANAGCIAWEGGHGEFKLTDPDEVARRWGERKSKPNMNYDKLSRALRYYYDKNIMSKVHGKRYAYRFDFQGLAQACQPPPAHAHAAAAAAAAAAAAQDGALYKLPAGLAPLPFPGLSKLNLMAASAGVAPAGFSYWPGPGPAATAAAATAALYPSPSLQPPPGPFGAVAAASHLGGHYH

[3] = molecular target: T3, ETV6 A93D (human) (UniProt P41212); conditions: low affinity, likely autoinhibition; EMSA conditions not printed (as previously described, ref 5); protein stock in 10 mM Tris pH 7.9, 0.5 mM EDTA, 200 mM KCl, 1 mM DTT, 10% glycerol; recombinant protein; residues 1-452; protein details: N-term 6xHis
T3 sequence (looked up): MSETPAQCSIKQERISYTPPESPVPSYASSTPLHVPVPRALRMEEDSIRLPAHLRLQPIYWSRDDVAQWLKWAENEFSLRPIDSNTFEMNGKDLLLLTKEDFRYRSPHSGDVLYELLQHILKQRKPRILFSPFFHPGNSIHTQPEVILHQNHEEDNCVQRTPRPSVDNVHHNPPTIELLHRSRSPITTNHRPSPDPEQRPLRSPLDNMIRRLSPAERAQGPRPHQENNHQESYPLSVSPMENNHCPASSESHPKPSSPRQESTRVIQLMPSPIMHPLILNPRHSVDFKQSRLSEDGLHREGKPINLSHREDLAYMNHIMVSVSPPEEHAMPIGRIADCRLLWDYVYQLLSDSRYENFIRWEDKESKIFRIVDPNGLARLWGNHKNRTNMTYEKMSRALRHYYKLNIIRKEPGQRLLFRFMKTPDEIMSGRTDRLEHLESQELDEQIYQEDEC

[4] = molecular target: T4, ELK1 (human) (UniProt P19419); conditions: EMSA conditions not printed (as previously described, ref 5); protein stock in 10 mM Tris pH 7.9, 0.5 mM EDTA, 200 mM KCl, 1 mM DTT, 10% glycerol; recombinant protein; residues 1-428; protein details: N-term 6xHis
T4 sequence (looked up): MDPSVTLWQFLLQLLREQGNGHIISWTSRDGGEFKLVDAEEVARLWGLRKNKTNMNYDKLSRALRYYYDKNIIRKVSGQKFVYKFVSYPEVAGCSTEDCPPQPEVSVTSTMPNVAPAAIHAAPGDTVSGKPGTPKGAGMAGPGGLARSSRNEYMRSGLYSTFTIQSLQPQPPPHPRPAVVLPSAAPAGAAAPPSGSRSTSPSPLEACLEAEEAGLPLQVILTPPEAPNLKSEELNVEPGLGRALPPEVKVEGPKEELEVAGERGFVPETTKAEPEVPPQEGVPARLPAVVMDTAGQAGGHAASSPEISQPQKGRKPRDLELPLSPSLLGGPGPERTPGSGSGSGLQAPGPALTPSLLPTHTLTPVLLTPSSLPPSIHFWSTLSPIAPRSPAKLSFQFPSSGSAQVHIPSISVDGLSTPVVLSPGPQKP

[5] = system: T5, ELK4 (human); conditions: EMSA conditions not printed (as previously described, ref 5); protein stock in 10 mM Tris pH 7.9, 0.5 mM EDTA, 200 mM KCl, 1 mM DTT, 10% glycerol; recombinant protein; residues 1-405; protein details: N-term 6xHis
T5 sequence (looked up): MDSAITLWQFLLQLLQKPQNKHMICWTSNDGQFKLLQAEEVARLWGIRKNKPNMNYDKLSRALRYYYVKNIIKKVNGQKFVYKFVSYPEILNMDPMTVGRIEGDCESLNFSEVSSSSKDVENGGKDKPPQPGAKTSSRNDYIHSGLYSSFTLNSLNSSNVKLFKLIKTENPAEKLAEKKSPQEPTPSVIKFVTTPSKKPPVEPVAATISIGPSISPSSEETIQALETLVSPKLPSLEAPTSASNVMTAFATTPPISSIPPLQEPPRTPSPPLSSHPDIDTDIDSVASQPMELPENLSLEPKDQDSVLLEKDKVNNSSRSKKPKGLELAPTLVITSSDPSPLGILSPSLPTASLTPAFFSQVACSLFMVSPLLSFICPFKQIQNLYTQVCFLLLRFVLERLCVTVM

[6] = molecular target: T6, SPIC (human) (UniProt Q8N5J4); conditions: low affinity, likely autoinhibition; EMSA conditions not printed (as previously described, ref 5); protein stock in 10 mM Tris pH 7.9, 0.5 mM EDTA, 200 mM KCl, 1 mM DTT, 10% glycerol; recombinant protein; residues 1-248; protein details: N-term 6xHis
T6 sequence (looked up): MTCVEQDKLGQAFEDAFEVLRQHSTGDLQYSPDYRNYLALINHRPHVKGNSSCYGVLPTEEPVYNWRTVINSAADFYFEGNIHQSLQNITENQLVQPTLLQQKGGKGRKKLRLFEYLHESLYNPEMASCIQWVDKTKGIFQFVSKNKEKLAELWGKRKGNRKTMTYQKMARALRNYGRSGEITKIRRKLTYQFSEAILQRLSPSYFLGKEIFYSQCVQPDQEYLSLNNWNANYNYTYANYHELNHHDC

Measured: binding result

GCCACGGCCCAGGAAGTGACTCACCCACCCTGATG (double strand) [ETS consensus EMSA probe]
binds more weakly: [3] | [6]
binds: all other assays above
